From article PMC4746285, “Functional Analysis of the Citrate Activator CitO from Enterococcus faecalis Implicates a Divalent Metal in Ligand Binding” (Frontiers in Microbiology, 2016)

How the values were obtained:
[1] = system: CitO-H191A; format: binding; details: ITC, ni = no interaction
[2] = system: CitO-R97A; format: binding; details: ITC, ni = no interaction

O=C(O)CC(O)(CC(=O)O)C(=O)O [citrate]
ni^*: TΔS [1] | ΔG [1] | ΔH [1] | TΔS [2] | ΔG [2] | ΔH [2]
